Some of the results follow.

Protein sequences, listed by entry. Tags and fused reporters are not part of them.
UniProt Q0JBA9, entry or part of it: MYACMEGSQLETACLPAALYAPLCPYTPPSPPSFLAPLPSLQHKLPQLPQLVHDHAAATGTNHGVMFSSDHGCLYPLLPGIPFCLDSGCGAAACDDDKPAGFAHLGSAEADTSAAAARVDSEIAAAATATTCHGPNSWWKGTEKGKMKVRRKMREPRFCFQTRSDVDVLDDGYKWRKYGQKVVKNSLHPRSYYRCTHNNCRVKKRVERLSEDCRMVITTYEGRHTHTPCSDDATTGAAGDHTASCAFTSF

Here are results for 42 sequences from article PMC7819943, “Rice protein-binding microarrays: a tool to detect cis-acting elements near promoter regions in rice”.

For the assay, the target named is OsWRKY34 (Oryza sativa, UniProt Q0JBA9 1-250). Description: protein-binding microarray (RPBM); PBS, 2% BSA, 51.3 ng/ul salmon testes DNA, 50 uM zinc acetate, 200 nM TF, 25 C, 1 h; high values mean tight binding. The conditions noted are these: protein: recombinant; tags: N-terminal polyhistidine and DsRed monomer fusion (pET32a); label: CyDye5-dUTP incorporated in the synthesized complementary strand; 3' TTTTT single-stranded linker to array surface; dsDNA, one strand shown. A digest of the protocol: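 Transcription factors were made in E. coli BL21-CodonPlus as N-terminal fusions to a polyhistidine tag and DsRed, then purified on Ni–NTA. After primer extension with Cy5-dUTP and blocking with 2% BSA, a custom Agilent array was exposed for 1 h at 25 °C to 200 nM protein in PBS, 2% BSA, salmon testes DNA and 50 µM zinc acetate. Washed arrays were scanned on an Axon 4000B, and the binding signal is per-feature fluorescence intensity in arbitrary units.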
Take “AGCTCCAAATGATTTTTTTCTCCTAAACTGTTTGTCTAATCGGAGTCACCTAGTGCAG”: the binding signal was 9720 fluorescence intensity (a.u.).
In the case of “GTCTCATCTGCATGCTGAGTGTTTATAGTTTATCCGGAACCGGAGTCACCTAGTGCAG” it was 9300 fluorescence intensity (a.u.).
Under “ACGTGCCTACTTGACTTGCTGACCTACATTGCCGACTGCCCGGAGTCACCTAGTGCAG” stands 8300 fluorescence intensity (a.u.).
In the case of “GTCACAATTGGGCCTCCATAAGCCCATCTGAGCCCACACACGGAGTCACCTAGTGCAG” it was 8160 fluorescence intensity (a.u.); in that of “ACCACTCTACTAATTCCTTTTGGTTAACGATTCGAAGCTCCGGAGTCACCTAGTGCAG”, 8650 fluorescence intensity (a.u.); in that of “TCCCGTATTTTTCTTACACTTTTTTTTTAAAAAAAAATACCGGAGTCACCTAGTGCAG”, 9140 fluorescence intensity (a.u.).
As for “TACTATGCTACCCTATCAAAATCTTGGTAGTACCCAAAGTCGGAGTCACCTAGTGCAG”, the binding signal was 8610 fluorescence intensity (a.u.).
In the case of “AAAAGCAGGAGGATTGGTCTTGGGTGGGTGGTTGCCACTTCGGAGTCACCTAGTGCAG” it was 9400 fluorescence intensity (a.u.).
In the case of “AATTACGTGCTAATAGGCCGCCCCGTTTTCCGTACGCACTCGGAGTCACCTAGTGCAG”, the binding signal is 10300 fluorescence intensity (a.u.).
For the sequence “GAGCTCTCTGCTCTTCCATTGCTAGTTTTGCTTCATTTCCCGGAGTCACCTAGTGCAG”, the binding signal is 8260 fluorescence intensity (a.u.).
Under “GAGCCATCCCGTCCCATCACGACGCATTGCTGCCGCGGCCCGGAGTCACCTAGTGCAG” stands 9640 fluorescence intensity (a.u.); under “TATCCACTTCGCTCTCTTCTCTGCAGCGCTGCATCCTACTCGGAGTCACCTAGTGCAG”, 10800 fluorescence intensity (a.u.); under “ATAGATGACGCTGTTGATTTTTTTCTCACATGTTTGACCACGGAGTCACCTAGTGCAG”, 10400 fluorescence intensity (a.u.).
Under “TTCTTTTTCTTTTGCTTTGGCCGGCGTTTCATCGCGCGGGCGGAGTCACCTAGTGCAG” stands 9240 fluorescence intensity (a.u.); under “TGCTTCACATCTCCGTCCAGTCCCTACCGTATACTACTATCGGAGTCACCTAGTGCAG”, 15100 fluorescence intensity (a.u.).
In the case of “GGAGGAGAGAGGGGTGGGGTTTGTGGTGTCGTCGTCCATGCGGAGTCACCTAGTGCAG” it was 11700 fluorescence intensity (a.u.).
As to “ATGGTGGGCTGTGGGTGCATGGTTTTGCTGGTCGCACCCACGGAGTCACCTAGTGCAG”, the binding signal is 11100 fluorescence intensity (a.u.).
With “GCCTCGCCCAGATCACCGGCCGCTACTTCCTCTGCCGCAGCGGAGTCACCTAGTGCAG”, the binding signal is 10700 fluorescence intensity (a.u.).
Under “TTGACTGGAGGTCTGTATAAGACATAAGTCCACTTGCATTCGGAGTCACCTAGTGCAG” stands 9420 fluorescence intensity (a.u.).
For “ACTTATTCCCTGTACTGACCATCCCGTTCCGCATTCCCACCGGAGTCACCTAGTGCAG”, the binding signal is 11000 fluorescence intensity (a.u.).
Consider “CCCGCTGCAACCGCTACCACCTGCATCTACTGCTGCTGACCGGAGTCACCTAGTGCAG”, for which the binding signal was 8930 fluorescence intensity (a.u.).
Under “TCAAAATGTTAAATGGTATATTACTACTCCCTCCGTACTCCGGAGTCACCTAGTGCAG” stands 8150 fluorescence intensity (a.u.).
Take “CTCTCTCTCTCCACACGCGCAGCTTTTTGCTTCTGCAATTCGGAGTCACCTAGTGCAG”: the binding signal was 9780 fluorescence intensity (a.u.).
In the case of “TACCATTTCTACGATGTATCTTCCTATTTTTCCATCACATCGGAGTCACCTAGTGCAG” it was 8890 fluorescence intensity (a.u.).
In the case of “CAAACTTCTAATTTTTCCGTCACATCAAATGTTTGGATATCGGAGTCACCTAGTGCAG” it was 34900 fluorescence intensity (a.u.); in that of “ATGCTTGATTCGTCGGGATCGACAAATTTGTACCGTGTATCGGAGTCACCTAGTGCAG”, 8130 fluorescence intensity (a.u.).
In the case of “TGTTCTCATGTTCTTTCCATATTCGAGTCTCCGTAATCCCCGGAGTCACCTAGTGCAG” it was 9750 fluorescence intensity (a.u.); in that of “TCTGACTCTCCAACCTCCCGTCCTTGGTCCTTACACGCAACGGAGTCACCTAGTGCAG”, 8200 fluorescence intensity (a.u.).
Take “GTGATTAAAACGGTTTCCGGTTAGCTGCGTGCTCTATTTCCGGAGTCACCTAGTGCAG”: the binding signal is 9060 fluorescence intensity (a.u.).
In the case of “ACCTTGTAGTCAAGGAGCATCTGGGGCATCTTCTTCATCACGGAGTCACCTAGTGCAG” it was 9010 fluorescence intensity (a.u.).
As to “TCACATATTTTATCCATTTAAGTTTAATTTTTCTATGGTTCGGAGTCACCTAGTGCAG”, the binding signal was 9370 fluorescence intensity (a.u.).
Turning to “GTACAACCGATTGGGCTCTCAATTCTTCTTCACATGCTTCCGGAGTCACCTAGTGCAG”, the binding signal was 11000 fluorescence intensity (a.u.).
In the case of “GGCTGGAGGAAGAGTGGGGTGGCGCGTCGCTGGTCCGCAACGGAGTCACCTAGTGCAG” it was 8040 fluorescence intensity (a.u.).
In the case of “GCTAGTATCCCTCGTGACAAGTGACACCTGTTTTTTATTACGGAGTCACCTAGTGCAG” it was 8620 fluorescence intensity (a.u.); in that of “CATCATCCACCCCGACCTCCGCCTCCGCCTCCGCCCGCCGCGGAGTCACCTAGTGCAG”, 9930 fluorescence intensity (a.u.); in that of “CTCCGTTTTCTACGCGGATAGCTTGGGTTGGTAACCATGTCGGAGTCACCTAGTGCAG”, 10600 fluorescence intensity (a.u.).
Under “ACCTCGCTCGCCCGCCCGCCCGCCTCCGCCTCCGCCAATGCGGAGTCACCTAGTGCAG” stands 8810 fluorescence intensity (a.u.); under “CTACCTTTTATTTTCACCGGAGTTAGATTTCCATAAAAAACGGAGTCACCTAGTGCAG”, 8810 fluorescence intensity (a.u.); under “TTTAAACTTGATAATTTTTTACTAATATTTCCATCGTTTTCGGAGTCACCTAGTGCAG”, 10000 fluorescence intensity (a.u.).
On to “TTATATCTCTCATTCGATTCTTGCGTTTTTCTGCGGCCAACGGAGTCACCTAGTGCAG”, for which the binding signal is 8180 fluorescence intensity (a.u.).
In the case of “TTTTCACTCATCAGATTTTGTTTATTCGTACTGCGTCGCCCGGAGTCACCTAGTGCAG” it was 8940 fluorescence intensity (a.u.); in that of “CCCAAATCGATCCATTTTTTGCCTCACTTAATCTCTCGCTCGGAGTCACCTAGTGCAG”, 9030 fluorescence intensity (a.u.).
